Experimental data as given in paper PMC7840522, “Ca14-3-3 Interacts With CaWRKY58 to Positively Modulate Pepper Response to Low-Phosphorus Starvation”.
The exact form of at least one protein or probe is not confirmed.

Molecular target: CaWRKY58-6xHis (Capsicum annuum) (UniProt Q5DJV3)
Assay: EMSA
Conditions: Cy5 probes, Odyssey CLX; recombinant protein; protein details: 6xHis (pDEST17, text says N-terminal 6xHis); label: Cy5; probe letters rebuilt from the primers and the genome

“CATTTGAGGGTTTAGCATGTAACTATCATGCAGCTTCTGCATTTGCTGAATTTTCACCATTGATAAAACTATGCTTGACCATCTAAATTTTCCTATTATAAGGCAAGAAATTATCTTGTATACTCCTGTTCAGTTGTAGCATGCTTGTTG (double strand) [CaPHR1-P (CaPHR1-Pcy5)]”: binds.
